Reference: the supplement of paper PMC10849652
The other results are listed elsewhere or left out.

Amino acid sequences for entries named in this document (tags omitted). A change or cut given only in a name is not applied to a line headed by its entry.
UniProt Q9BT23: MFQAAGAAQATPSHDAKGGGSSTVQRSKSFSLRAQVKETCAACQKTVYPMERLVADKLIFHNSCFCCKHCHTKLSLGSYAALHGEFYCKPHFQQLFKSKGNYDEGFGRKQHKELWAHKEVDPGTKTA
UniProt Q96CN5: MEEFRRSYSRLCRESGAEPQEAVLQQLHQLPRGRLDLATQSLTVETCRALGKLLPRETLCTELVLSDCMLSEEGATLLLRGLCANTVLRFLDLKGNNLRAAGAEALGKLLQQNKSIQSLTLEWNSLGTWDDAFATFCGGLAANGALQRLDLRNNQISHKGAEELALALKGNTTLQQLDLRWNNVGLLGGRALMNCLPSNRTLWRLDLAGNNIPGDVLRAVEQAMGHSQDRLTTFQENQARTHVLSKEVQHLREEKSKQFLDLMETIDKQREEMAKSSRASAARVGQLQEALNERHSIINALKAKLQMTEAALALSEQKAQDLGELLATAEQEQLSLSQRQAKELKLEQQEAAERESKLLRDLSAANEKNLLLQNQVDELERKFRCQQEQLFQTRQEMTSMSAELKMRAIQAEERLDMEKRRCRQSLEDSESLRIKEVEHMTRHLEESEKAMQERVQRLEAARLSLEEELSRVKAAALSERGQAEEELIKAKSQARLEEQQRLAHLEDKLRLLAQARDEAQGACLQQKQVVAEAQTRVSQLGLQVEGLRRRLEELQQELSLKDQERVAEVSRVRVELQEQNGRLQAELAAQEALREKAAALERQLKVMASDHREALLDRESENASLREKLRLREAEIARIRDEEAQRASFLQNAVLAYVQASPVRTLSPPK
UniProt P18858, whole entry, looked up: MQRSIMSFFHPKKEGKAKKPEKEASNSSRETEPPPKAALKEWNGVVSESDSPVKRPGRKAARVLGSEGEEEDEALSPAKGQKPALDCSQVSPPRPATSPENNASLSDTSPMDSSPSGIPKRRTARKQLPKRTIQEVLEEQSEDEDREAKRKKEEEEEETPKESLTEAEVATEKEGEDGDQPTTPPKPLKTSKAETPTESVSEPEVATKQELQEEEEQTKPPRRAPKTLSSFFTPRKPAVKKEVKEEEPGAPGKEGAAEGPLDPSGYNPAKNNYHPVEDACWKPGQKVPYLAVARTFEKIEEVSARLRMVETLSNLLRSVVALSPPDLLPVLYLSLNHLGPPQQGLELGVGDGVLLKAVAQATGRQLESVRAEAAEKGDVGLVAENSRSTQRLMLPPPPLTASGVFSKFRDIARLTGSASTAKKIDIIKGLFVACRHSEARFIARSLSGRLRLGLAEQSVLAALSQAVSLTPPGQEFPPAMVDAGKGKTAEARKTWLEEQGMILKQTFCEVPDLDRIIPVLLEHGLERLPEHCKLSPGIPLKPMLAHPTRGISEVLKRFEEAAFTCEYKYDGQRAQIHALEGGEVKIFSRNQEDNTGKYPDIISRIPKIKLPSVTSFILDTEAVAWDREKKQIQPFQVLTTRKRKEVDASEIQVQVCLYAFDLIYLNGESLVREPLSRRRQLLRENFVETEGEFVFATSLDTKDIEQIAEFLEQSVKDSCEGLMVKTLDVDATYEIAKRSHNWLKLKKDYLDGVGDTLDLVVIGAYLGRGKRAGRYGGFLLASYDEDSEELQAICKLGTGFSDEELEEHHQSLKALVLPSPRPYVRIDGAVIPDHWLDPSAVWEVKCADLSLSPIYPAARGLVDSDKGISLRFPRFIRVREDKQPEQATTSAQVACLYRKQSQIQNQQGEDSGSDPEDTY
UniProt Q6P5S2: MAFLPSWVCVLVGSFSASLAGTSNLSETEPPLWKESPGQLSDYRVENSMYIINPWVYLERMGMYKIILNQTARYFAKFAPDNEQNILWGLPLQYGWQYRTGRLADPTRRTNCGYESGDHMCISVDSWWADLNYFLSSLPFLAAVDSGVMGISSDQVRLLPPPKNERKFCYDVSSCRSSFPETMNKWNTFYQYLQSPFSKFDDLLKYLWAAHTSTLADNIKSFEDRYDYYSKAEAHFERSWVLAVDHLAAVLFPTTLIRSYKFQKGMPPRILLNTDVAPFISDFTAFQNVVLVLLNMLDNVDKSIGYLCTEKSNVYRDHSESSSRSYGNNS
UniProt Q7L5N7: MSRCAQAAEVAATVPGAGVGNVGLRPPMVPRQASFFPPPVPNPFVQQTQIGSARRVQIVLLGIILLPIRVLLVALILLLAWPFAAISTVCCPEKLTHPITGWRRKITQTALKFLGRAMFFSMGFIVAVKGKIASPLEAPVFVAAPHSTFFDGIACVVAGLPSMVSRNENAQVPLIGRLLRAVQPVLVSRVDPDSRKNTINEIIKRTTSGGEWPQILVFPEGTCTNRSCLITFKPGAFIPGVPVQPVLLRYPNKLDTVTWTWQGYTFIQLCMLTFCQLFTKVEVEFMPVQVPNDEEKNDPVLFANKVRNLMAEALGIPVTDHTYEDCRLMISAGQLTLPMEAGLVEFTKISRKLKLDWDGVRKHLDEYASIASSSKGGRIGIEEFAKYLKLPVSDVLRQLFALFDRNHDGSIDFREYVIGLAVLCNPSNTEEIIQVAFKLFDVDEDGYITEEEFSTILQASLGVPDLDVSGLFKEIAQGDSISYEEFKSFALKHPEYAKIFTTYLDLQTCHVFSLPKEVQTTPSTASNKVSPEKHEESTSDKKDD
UniProt Q96JM4: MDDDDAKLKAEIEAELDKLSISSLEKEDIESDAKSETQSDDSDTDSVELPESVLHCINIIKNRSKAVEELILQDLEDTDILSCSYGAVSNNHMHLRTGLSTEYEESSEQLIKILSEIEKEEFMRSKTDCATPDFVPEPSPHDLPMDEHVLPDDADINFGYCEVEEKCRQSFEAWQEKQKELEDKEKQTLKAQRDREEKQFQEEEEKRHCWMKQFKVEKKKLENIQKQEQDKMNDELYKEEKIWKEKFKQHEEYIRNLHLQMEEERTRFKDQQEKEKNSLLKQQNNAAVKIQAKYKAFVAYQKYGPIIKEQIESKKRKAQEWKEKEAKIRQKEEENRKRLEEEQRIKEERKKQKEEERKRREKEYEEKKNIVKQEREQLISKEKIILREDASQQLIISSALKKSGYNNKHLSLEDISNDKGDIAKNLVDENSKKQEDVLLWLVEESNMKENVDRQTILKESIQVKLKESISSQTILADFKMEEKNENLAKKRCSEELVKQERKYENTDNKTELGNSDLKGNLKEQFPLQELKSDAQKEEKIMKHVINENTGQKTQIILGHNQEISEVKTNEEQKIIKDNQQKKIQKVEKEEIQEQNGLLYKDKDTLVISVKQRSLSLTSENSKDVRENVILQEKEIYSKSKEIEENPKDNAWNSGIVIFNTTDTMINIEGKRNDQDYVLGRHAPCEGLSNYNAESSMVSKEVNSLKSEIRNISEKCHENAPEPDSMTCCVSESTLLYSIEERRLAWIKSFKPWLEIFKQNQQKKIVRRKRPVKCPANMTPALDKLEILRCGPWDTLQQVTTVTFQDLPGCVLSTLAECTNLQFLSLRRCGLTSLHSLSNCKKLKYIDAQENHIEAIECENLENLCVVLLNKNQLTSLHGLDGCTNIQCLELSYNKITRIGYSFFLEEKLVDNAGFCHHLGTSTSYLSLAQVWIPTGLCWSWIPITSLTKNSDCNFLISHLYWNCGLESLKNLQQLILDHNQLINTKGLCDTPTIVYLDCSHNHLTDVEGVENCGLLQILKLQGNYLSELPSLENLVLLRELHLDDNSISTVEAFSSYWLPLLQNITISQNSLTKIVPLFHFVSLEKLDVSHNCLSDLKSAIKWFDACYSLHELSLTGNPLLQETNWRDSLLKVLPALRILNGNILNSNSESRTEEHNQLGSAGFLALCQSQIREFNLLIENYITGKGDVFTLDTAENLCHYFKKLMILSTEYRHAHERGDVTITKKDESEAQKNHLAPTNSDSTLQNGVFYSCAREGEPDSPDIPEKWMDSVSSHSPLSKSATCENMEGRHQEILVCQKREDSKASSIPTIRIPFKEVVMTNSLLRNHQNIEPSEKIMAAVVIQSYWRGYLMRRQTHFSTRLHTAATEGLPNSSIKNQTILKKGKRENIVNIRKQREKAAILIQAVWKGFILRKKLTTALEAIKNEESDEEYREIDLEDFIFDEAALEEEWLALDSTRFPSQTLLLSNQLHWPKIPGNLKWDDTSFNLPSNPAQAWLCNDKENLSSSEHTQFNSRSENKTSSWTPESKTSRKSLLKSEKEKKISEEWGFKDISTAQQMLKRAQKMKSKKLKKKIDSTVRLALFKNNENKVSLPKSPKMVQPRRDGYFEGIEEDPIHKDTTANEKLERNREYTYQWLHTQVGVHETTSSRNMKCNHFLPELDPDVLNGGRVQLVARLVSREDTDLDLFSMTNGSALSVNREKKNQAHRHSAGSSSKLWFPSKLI

Assays:
Test in all cases: log2 fold change, soluble protein after heating vs DMSO (PISA); higher = thermal stabilisation; K562 lysate, 10 uM; active = over 0.2 and 3.5 SD of the protein, either way, in both replicates (recomputed)
[1] = compound: CS(=O)(=O)N1CCN(Cc2cc3nc(-c4cccc5[nH]ncc45)nc(N4CCOCC4)c3s2)CC1 [pictilisib]
Procedure, shortened: (§1)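 K562 pellets were dounce-homogenised in PBS pH 7.4 containing 1 mM MgCl2, and the crude extract, at 1 mg/mL protein, was exposed to 10 μM compound for 30 min. Aliquots were heated for 3 min across 48°C-58°C, pooled, brought to 0.5% NP-40 at 4°C and spun at 21,000xg for 90 min, with the supernatant taken as soluble protein. TMTpro 16plex LC-MS/MS with equalised channel sums quantified that protein. Values are log-two fold changes in thermal stability relative to solvent controls, taken from duplicates.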

[2] = compound: C[C@@H](Oc1cc(-c2cnn(C3CCNCC3)c2)cnc1N)c1c(Cl)ccc(F)c1Cl [crizotinib]
Procedure, shortened: as §1

[3] = compound: Cc1ccc(-n2nc(C(C)(C)C)cc2NC(=O)Nc2ccc(OCCN3CCOCC3)c3ccccc23)cc1 [doramapimod]
Procedure, shortened: as §1

[4] = compound: Cc1ccc(NC(=O)c2ccc(CN3CC[C@H](N(C)C)C3)c(C(F)(F)F)c2)cc1Nc1nccc(-c2cncnc2)n1 [bafetinib]
Procedure, shortened: as §1

[5] = compound: CNc1nc(-c2ccc3c(N)n[nH]c3c2)cc(N2C[C@@H](C(=O)NC3CCCCC3)CC[C@H]2C)n1
Procedure, shortened: as §1

[6] = compound: C[C@H](Nc1ncnc2nc[nH]c12)c1cc2cccc(Cl)c2c(=O)n1-c1ccccc1 [duvelisib]
Procedure, shortened: as §1

[7] = compound: CN1CCc2c(c3ccccc3n2Cc2ccc(C(=O)NO)cc2)C1 [Tubastatin A]
Procedure, shortened: as §1

[8] = compound: COC(=O)N[C@@H](C)CNc1nccc(-c2cn(C(C)C)nc2-c2cc(Cl)cc(NS(C)(=O)=O)c2F)n1 [encorafenib]
Procedure, shortened: as §1

[9] = compound: COC(=O)[C@H](CCSC)NC(=O)C1=C(C=C(C=C1)NC[C@H](CS)N)C2=CC=CC=C2
Procedure, shortened: as §1

[10] = compound: Cc1cc(Nc2cc(N3CCN(C)CC3)nc(Sc3ccc(NC(=O)C4CC4)cc3)n2)n[nH]1 [tozasertib]
Procedure, shortened: as §1

[11] = compound: CN1CC[C@H](c2c(O)cc(O)c3c(=O)cc(-c4ccccc4Cl)oc23)[C@H](O)C1 [alvocidib]
Procedure, shortened: as §1

[12] = compound: COc1cc2nc(-c3cc(F)ccc3O)nc(N[C@@H]3CNC[C@H]3C(C)(C)O)c2cc1OC
Procedure, shortened: as §1

[13] = compound: CS(=O)(=O)CCNCc1ccc(-c2ccc3ncnc(Nc4ccc(OCc5cccc(F)c5)c(Cl)c4)c3c2)o1 [lapatinib]
Procedure, shortened: as §1

[14] = compound: C[C@H](C1=CC=C(C=C1)C(=O)NC2=C3C=CNC3=NC=C2)N
Procedure, shortened: as §1

[15] = compound: Cc1cc(Nc2cc(CN3CCOCC3)c3nc(C)c(Cc4ccc(Cl)cc4F)n3n2)n[nH]1 [gandotinib]
Procedure, shortened: as §1

[16] = compound: Cc1cccc(CC(=O)N2CCc3c2ccc(-c2cn(C)c4ncnc(N)c24)c3F)n1
Procedure, shortened: as §1

[17] = compound: CNC(=O)C1=CC=CC=C1NC2=NC(=NC=C2Cl)NC3=C(C=C(C=C3)N4CCOCC4)OC
Procedure, shortened: as §1

[18] = compound: COc1cc(Nc2ncc3c(n2)-c2ccc(Cl)cc2C(c2c(F)cccc2OC)=NC3)ccc1C(=O)O [alisertib]
Procedure, shortened: as §1

[19] = compound: COc1cc2ncnc(Nc3ccc(F)c(Cl)c3)c2cc1OCCCN1CCOCC1 [gefitinib]
Procedure, shortened: as §1

[20] = compound: CNC(=O)c1ccc(Nc2ncc(C(F)(F)F)c(NCc3nccnc3N(C)S(C)(=O)=O)n2)cc1 [defactinib]
Procedure, shortened: as §1

Measured: log2 fold change

LIMD2 (UniProt Q9BT23)
inactive: [1] 0.057 | [2] -0.034 | [3] 0.011 | [4] -0.316

LRRC45 (UniProt Q96CN5)
inactive: [5] -0.089 | [6] 0.112

LIG1 isoform 3 (UniProt P18858)
inactive: [7] -0.005 | [8] -0.053 | [9] 0.211 | [10] -0.031

LDHA isoform 4 (UniProt P00338)
inactive: [11] -0.111 | [12] 0.025 | [13] -0.325 | [14] -0.4 | [15] 0.021 | [16] 0.135

LEG1 (UniProt Q6P5S2)
inactive: [7] 1.27 | [17] 0.156 | [5] 0.116 | [8] -0.074 | [9] 0.267 | [18] 0.166 | [12] 0.04 | [19] -0.023 | [13] -0.042 | [1] -0.22 | [2] -0.157 | [6] 0.152 | [10] -0.027 | [3] 0.299 | [4] -0.448

LPCAT2 (UniProt Q7L5N7)
inactive: [20] -0.088 | [5] -0.11 | [8] -0.008 | [9] 0.063 | [18] -0.302 | [19] 0.075 | [1] -0.046 | [2] 0.419 | [6] -0.031 | [10] 0.1 | [3] -0.011 | [4] -0.144

LRRIQ1 (UniProt Q96JM4)
inactive: [7] -0.096 | [20] -0.031 | [12] -0.037 | [13] 0.04 | [2] -0.278 | [3] -0.073
